# Test results published in ChEMBL document CHEMBL1121377, “Synthesis and biological activities of chloroethylurea, methylurea, and nitrosourea analogues of N-deacetylmethylthiocolchicine” (1980).
# Assays:
# L1210 = assay: In vitro inhibitory activity against murine leukemia L1210 cells; type: functional; details: Mus musculus, read-out: ED50 (the source's name)
# Human alphaherpesvirus 1 = assay: microbe, parasite or virus in culture
compound,measurement,setting,value
COc1cc2c(c(OC)c1OC)-c1ccc(SC)c(=O)cc1C(N)CC2 (configuration not stated),EC50,L1210,19 nM
same,inhibition at 30 µM,Human alphaherpesvirus 1,81%
